In the supplement of paper PMC4862054 one finds normalised response data, which are given here for four compounds.

Each structure is given as a SMILES string. Most values lie at the level of the controls, where differences are scatter.

Experiment in all cases: normalised response (% of control), CellTox Green; higher = less cell death (100 = DMSO, 0 = benzethonium chloride kill control)
Holding throughout (conditions): incubation time: 72 h

For experiment [1], the system named is BT-474. On the procedure:
(§1)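 DSRT, 72 h incubation, CellTox Green / CellTiter-Glo readout. Signal is normalised to DMSO and benzethonium chloride controls. Value is the normalised response at dose 2.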

In experiment [2] the test system is BT-549. On the procedure:
as §1

For experiment [3], the system named is CAL-120. As to the method:
as §1

For experiment [4], the system named is CAL-148. As to the method: as §1
Experiment [5] deals with CAL-51. On the procedure: as §1
The test system of experiment [6] is CAL-85-1. On the procedure:
as §1

In experiment [7] the test system is DU-4475. As to the method: as §1
Experiment [8] deals with HCC1143. On the procedure: as §1
For experiment [9], the system named is HCC1599. As to the method: as §1
The test system of experiment [10] is HDQ-P1. On the procedure:
as §1

The test system of experiment [11] is Hs578T. As to the method: as §1
Experiment [12] has as its system MCF-10A. On the procedure:
as §1

Experiment [13] deals with MDA-MB-231. As to the method: as §1
Experiment [14] deals with MDA-MB-436. As to the method:
as §1

Experiment [15] relates to MDA-MB-453. As to the method:
as §1

Experiment [16] relates to MDA-MB-468. On the procedure:
as §1

For experiment [17], the system named is MFM-223. As to the method: as §1
Experiment [18] concerns HCC1937. As to the method:
as §1

On to `COc1cc2c(cc1O)CC[C@@H]1[C@@H]2CC[C@]2(C)[C@@H](O)CC[C@@H]12` [2-methoxyestradiol] (10 nM), for which the normalised response in experiment [1] is 101%; in [2] it was 75.2%; in experiment [3], 98.5%; in [4], 96.4%; in [5], 94.8%; in experiment [6], 93.1%. For the same compound, the normalised response in [7] was determined as 104%; in experiment [8], 109%; in experiment [9], 102%; in experiment [10], 110%; in [11], 71%; in experiment [12], 106%. Besides, the normalised response in experiment [13] is 88.4%; in experiment [14], 94.4%; in experiment [15], 100%; in experiment [16], 71.3%; in experiment [17] it was 92.3%.

For `COc1cc(OC2CCN(C)CC2)ccc1Nc1ncc2c(n1)n(C1CCCC1)c(=O)n2C` [AZ 3146] (10 nM), the normalised response in [1] was determined as 100%; in [2], 102%; in experiment [3] it was 99.1%; in [5] it was 106%; in experiment [6] it was 95.2%; in [7] it was 97.2%. Also, the normalised response amounted to 105% in experiment [8]; 95.8% in experiment [9]; 99.4% in experiment [18]; 105% in experiment [11]; 71.1% in experiment [12]; 102% in experiment [13]. The normalised response in experiment [14] amounted to 107%; in experiment [15], 99%; in [17], 103%.

With `CS(=O)(=O)N1CCN(Cc2cc3nc(-c4cccc5[nH]ncc45)nc(N4CCOCC4)c3s2)CC1` [Pictilisib] (10 nM), the normalised response in experiment [1] was 102%; in experiment [2], 99%; in experiment [3], 101%; in experiment [4], 101%; in experiment [5], 105%; in [6] it was 95.1%. Further, the normalised response in experiment [7] was found to be 108%; in [8] it was 114%; in experiment [9], 111%; in experiment [18], 112%; in experiment [10], 116%; in [11], 111%. For the same compound, the normalised response in experiment [12] came out at 113%; in experiment [13] it was 101%; in experiment [14], 94.9%; in experiment [15] it was 103%; in experiment [17], 98.4%.

As to `CCN(CC)CCNC(=O)c1c(C)[nH]c(/C=C2\C(=O)Nc3ccc(F)cc32)c1C` [Sunitinib] (1 nM), the normalised response turned out to be 101% in experiment [1]; 95.4% in experiment [2]; 105% in experiment [3]; 101% in experiment [4]; 116% in experiment [5]; 94.1% in experiment [6]. Further, the normalised response came to 110% in experiment [7]; 118% in [8]; 112% in [9]; 118% in [10]; 122% in [11]; 115% in [12]. Also, the normalised response was 110% in [13]; 95.9% in experiment [14]; 94.2% in experiment [15]; 100% in experiment [16]; 89.2% in experiment [17].
